PMC5456370, “Bacterial co-expression of human Tau protein with protein kinase A and 14-3-3 for studies of 14-3-3/phospho-Tau interaction” (PLoS ONE, 2017)
These are yes or no findings as the source states them, for the method shown. Some binding calls cover weakened binding; strength is not graded here.

Biological target: T1, human 14-3-3ε (human), P62258
T1 chain: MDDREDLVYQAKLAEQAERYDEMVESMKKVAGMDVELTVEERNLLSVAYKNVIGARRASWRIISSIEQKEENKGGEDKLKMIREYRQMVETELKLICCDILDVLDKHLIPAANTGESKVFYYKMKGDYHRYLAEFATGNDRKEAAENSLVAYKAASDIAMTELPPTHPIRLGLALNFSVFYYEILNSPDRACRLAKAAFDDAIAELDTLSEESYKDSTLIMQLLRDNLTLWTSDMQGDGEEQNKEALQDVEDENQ
Test: native gel or EMSA; purified 14-3-3 isoforms (14 μM per monomer) without or with PKA (2 μM) in 50 mM Hepes-NaOH pH 7.3, 10 mM NaCl, 4 mM MgCl2, 60 μM ATP, 2 h at 30°C; non-denaturing 15% gel, pH 8.6; dimer and monomer regions of the gel; both purified
Conditions: remark: other sources report otherwise

- binding: binds
B1: human 14-3-3ε, P62258 1-255 (protein)
chain: MDDREDLVYQAKLAEQAERYDEMVESMKKVAGMDVELTVEERNLLSVAYKNVIGARRASWRIISSIEQKEENKGGEDKLKMIREYRQMVETELKLICCDILDVLDKHLIPAANTGESKVFYYKMKGDYHRYLAEFATGNDRKEAAENSLVAYKAASDIAMTELPPTHPIRLGLALNFSVFYYEILNSPDRACRLAKAAFDDAIAELDTLSEESYKDSTLIMQLLRDNLTLWTSDMQGDGEEQNKEALQDVEDENQ
